Laboratory results taken from patent publication US10377778B2, “Lead and thorium compounds” (Sciencons AS, priority 2017, dated 2019).

Key:
[1] = test system: C4-2 PSMA positive human prostate cells xenografts; test: Comparative therapy experiment in nude mice with C4-2 xenografts; assay type: in vivo
Description: Male nude mice were inoculated in the flanks with C4-2 PSMA positive human prostate cells and 2 weeks later when tumors were 5-7 mm in diameters. Groups of 8 animals each received saline, 52 MBq of ^177Lu-PSMA-617 or 320 kBq of ^212Pb-p-SCN-Bn-TCMC-PSMA ligand 1. Animals were sacrificed when tumor size reached 20 mm due to animal welfare requirements. […] For ^212Pb the effective half-life was assumed to be 10.6 h, 10% of injected dose per gram decays in tumor and 100% of radiation in a tumor is absorbed in the tumor, 100% retention of ^212Pb and daughters in the tumors and 8 MeV radiation energy per decay. The tumor dosimetry for the injected activities gave on average 35.9 Gy to tumors for ^177Lu-PSMA-617 and 2.06 Gy to tumors for ^212Pb-p-SCN-Bn-TCMC-PSMA ligand 1 groups respectively.

[2] = Dosimetry estimate for dual targeting ^224Ra cation and ^212Pb-labeled PSMA targeting urea derivative; conditions: Assuming 1:1 ratio between ^224Ra and ^212Pb; 10.5 MBq per patient

Structure (SMILES) | Radiation dose (Gy) delivered, times higher than with ^212Pb-p-SCN-Bn-TCMC-PSMA ligand 1 ([1]; radiation dose estimates) [times] | Dose assessment, Kidneys [2] [Sv/10.5 MBq] | Dose assessment, Salivary glands [2] [Sv/10.5 MBq] | Radiobiological effectiveness (RBE) vs ^177Lu-PSMA-617 ([1]; from tumor growth delay and dose estimates)
O=C([O-])CN1CCN(CC(=O)[O-])CCN(CC(=O)NCC2CCC(C(=O)N[C@@H](Cc3ccc4ccccc4c3)C(=O)NCCCC[C@H](NC(=O)N[C@@H](CCC(=O)O)C(=O)O)C(=O)O)CC2)CCN(CC(=O)[O-])CC1.[177Lu+3] (stereo partly shown) [^177Lu-PSMA-617, reference compound] | 17 | – | – | –
NC(=O)CN1CCN(CC(N)=O)CCN(CC(N)=O)C(Cc2ccc(NC(=S)NCC3CCC(C(=O)NC(Cc4ccc5ccccc5c4)C(=O)NCCCCC(NC(=O)NC(CCC(=O)O)C(=O)O)C(=O)O)CC3)cc2)CN(CC(N)=O)CC1.[212Pb+2] (stereo not shown) [^212Pb-p-SCN-Bn-TCMC-PSMA ligand 1] | – | 0.36 | 0.60 | at least 17
